Here are results for three compounds from patent EP1414391B1, “Composition and METHOD of GENTLY colouring HAIR using 2-chloro-4-aminophenol as oxidation base” (Henkel Kommanditgesellschaft auf Aktien, priority 2000, dated 2002).

The series can be described thus: Dyeing of hair strands with dyeing cream containing 2-Chlor-4-aminophenol as developer and a coupler. Details: species or system Menschen. As to conditions: dyeing cream with 20mMol 2-Chlor-4-aminophenol and 20mMol coupler, pH 9,0; applied without added oxidising agent, ratio cream:hair 4 : 1; 30min at 32°C; strands 80% grey, not pretreated. As to the method:
Die Substanzen Hydrenol® D, Lorol® und Eumulgin® B2 wurden bei 80°C aufgeschmolzen, mit dem 80°C heißem Wasser, enthaltend Texapon® NSO und Dehyton® K, vermischt und unter starkem Rühren emulgiert. Danach wurde die Emulsion unter schwachem Rühren abgekühlt. Die Farbstoffvorprodukte wurden in dem 50°C heißem Wasser unter Zugabe von Natriumsulfit, Ammoniumsulfat und Ammoniak gelöst. Diese Farbstoffvorproduktlösung wurde zur Emulsion gegeben, mit Ammoniak der pH-Wert eingestellt und mit Wasser auf 100Gew.-% aufgefüllt. Es wurde bis zum Erreichen der Raumtemperatur weitergerührt.
Die so erhaltene Färbecreme wurde auf 5cm lange Strähnen standardisierten, zu 80% ergrauten, aber nicht besonders vorbehandelten Menschenhaares (Kerling Naturweiß) aufgetragen (Mengenverhältnis Farbstoffmischung: Haar betrug 4 : 1). Nach 30min Einwirkzeit bei 32°C wurde das Haar gespült, mit einem üblichen Haarwaschmittel ausgewaschen und anschließend getrocknet. Die Färbeergebnisse sind Tabelle I zu entnehmen. Tabelle I
For `Nc1ccc(OCCCOc2ccc(N)cc2N)c(N)c1` [1,3-Bis-(2',4'-diaminophenoxy)-propan], the Farbnuance result is on record as “braunorange”. As for `Cc1c(NCCO)cccc1NCCO` [2,6-Bis-(2'-hydroxyethylamino)-toluol], the Farbnuance entry is recorded as “tiefviolett”.

Consider `COc1ccc(NCCO)cc1N` [2-Amino-4-(2'-hydroxyethylamino)-anisol], for which the Farbnuance entry is reported as “rubin”.
